According to PMC11633057, “Targeting MarA N‐terminal domain dynamics to prevent DNA binding”:
Residue numbers refer to the chain shown, from its start. The exact form of at least one protein or probe is not confirmed. For some assays here: A negative result means that nothing was seen under these conditions. For some assays here: At least one verdict rests on a figure or table, not on a statement of the authors. Where a protein sequence is shown, tags need not be part of it.

Key:
Assay in all cases: EMSA
[1] = molecular target: T1, MarA WT, His-tag cleaved (Escherichia coli MG1655) (UniProt P0ACH5); conditions: pattern similar to His-tagged; EMSA: 20 mM Hepes pH 8, 100 mM MgCl2, 100 mM EDTA, 0.3 mg/mL BSA, +/- DTT, 0.8 uM MarA, DNA 15 nM (200 bp) or 200 nM (30 bp), 20 min 37 C, 8% native gel, SYBR green; recombinant protein
T1 sequence (looked up, limits assumed): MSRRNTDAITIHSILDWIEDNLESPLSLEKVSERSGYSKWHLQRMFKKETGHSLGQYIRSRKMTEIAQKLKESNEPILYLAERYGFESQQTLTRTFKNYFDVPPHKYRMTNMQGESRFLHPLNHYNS

[2] = molecular target: T2, MarA I16C/M47C, His-tag cleaved I14C,M45C (Escherichia coli MG1655) (UniProt P0ACH5); conditions: pattern similar to His-tagged, EMSA: 20 mM Hepes pH 8, 100 mM MgCl2, 100 mM EDTA, 0.3 mg/mL BSA, 0.8 uM MarA, DNA 15 nM (200 bp) or 200 nM (30 bp), 20 min 37 C, 8% native gel, SYBR green, recombinant protein
T2 sequence (looked up, limits assumed): T1 sequence (looked up, limits assumed) with I14C, M45C

[3] = molecular target: T3, MarA I13C/M47C, His-tag cleaved I11C,M45C (Escherichia coli MG1655) (UniProt P0ACH5); conditions: pattern similar to His-tagged; EMSA: 20 mM Hepes pH 8, 100 mM MgCl2, 100 mM EDTA, 0.3 mg/mL BSA, +/- DTT, 0.8 uM MarA, DNA 15 nM (200 bp) or 200 nM (30 bp), 20 min 37 C, 8% native gel, SYBR green; recombinant protein
T3 sequence (looked up, limits assumed): T1 sequence (looked up, limits assumed) with I11C, M45C

[4] = molecular target: T4, MarA I16C/M47C I14C,M45C (Escherichia coli MG1655) (UniProt P0ACH5); conditions: no DTT (disulfide), EMSA: 20 mM Hepes pH 8, 100 mM MgCl2, 100 mM EDTA, 0.3 mg/mL BSA, 0.8 uM MarA, DNA 15 nM (200 bp) or 200 nM (30 bp), 20 min 37 C, 8% native gel, SYBR green, recombinant protein, protein details: N-terminal 6xHis (pET-15b)
T4 sequence (looked up, limits assumed): T1 sequence (looked up, limits assumed) with I14C, M45C

[5] = molecular target: T5, MarA S62C/L121C S60C,L119C (Escherichia coli MG1655) (UniProt P0ACH5); conditions: no DTT (disulfide), EMSA: 20 mM Hepes pH 8, 100 mM MgCl2, 100 mM EDTA, 0.3 mg/mL BSA, 0.8 uM MarA, DNA 15 nM (200 bp) or 200 nM (30 bp), 20 min 37 C, 8% native gel, SYBR green, recombinant protein, protein details: N-terminal 6xHis (pET-15b), probe letters rebuilt from the primers and the genome
T5 sequence (looked up, limits assumed): T1 sequence (looked up, limits assumed) with S60C, L119C

[6] = molecular target: T6, MarA I13C/M47C I11C,M45C (Escherichia coli MG1655) (UniProt P0ACH5); conditions: no DTT (disulfide), EMSA: 20 mM Hepes pH 8, 100 mM MgCl2, 100 mM EDTA, 0.3 mg/mL BSA, 0.8 uM MarA, DNA 15 nM (200 bp) or 200 nM (30 bp), 20 min 37 C, 8% native gel, SYBR green, recombinant protein, protein details: N-terminal 6xHis (pET-15b), probe letters rebuilt from the primers and the genome
T6 sequence (looked up, limits assumed): T1 sequence (looked up, limits assumed) with I11C, M45C

Sequence	binding result [1]	binding result ([2]; no DTT)	binding result ([2]; with DTT)	binding result [3]	binding result [4]	binding result [5]	binding result [6]
CTTCTTGTTTGGTTTTTCGTGCCATATGTTC (double strand) [acrAB short marbox (called 30-bp)]	binds	no binding	binds	binds	–	–	–
GAACCGATTTAGCAAAACGTGGCATCGGTC (double strand) [marRAB 30-bp marbox]	binds	no binding	binds	binds	no binding	–	–
GTTATCCTGTGTATCTGGGTTATCAGCGAAAAGTATAAGGGGTAAACAAGGATAAAGTGTCACTCTTTAGCTAGCCTTGCATCGCATTGAACAAAACTTGAACCGATTTAGCAAAACGTGGCATCGGTCAATTCATTCATTTGACTTATACTTGCCTGGGCAATATTATCCCCTGCAACTAATTACTTGCCAGGGCAAC (double strand) [marRAB 200-bp fragment]	–	–	–	–	–	binds	binds
